In this assay the target is APJ receptor (Homo sapiens (Human), UniProt P35414). Briefly: [35S]GTPγS binding assay on membranes from CHO cells stably expressing human APJ receptor. The format is biochemical. Conditions: read-out: Activity hAPJ SPA EC50 IP, membranes of CHO cells stably expressing human APJ receptor. How it is done: The human APJ receptor was cloned by polymerase chain reaction and the gene encoding the receptor was subcloned in pFLAG-CMV™-3 expression vector (Sigma, Saint Louis, Mo. USA) in-house at Amgen. A GTPγS binding assay was performed on membranes prepared from CHO cells stably expressing human APJ receptor. The optimum experimental conditions for the concentrations of GDP, MgCl2, and NaCl in the assay buffer were initially determined. […] Incubation was at RT for 90 min and the microplate was read using a ViewLux™ ultra HTS Microplate Imager (PerkinElmer, Inc.). All the results presented are means of several independent experiments and analyzed by non-linear regression methods using the commercially available program Prism (GraphPad, San Diego, Calif.) providing the EC50 values detailed in Table 27.
A general note: GTPγS resists hydrolysis and so accumulates on activated G proteins.

Chains of the proteins cited; added tags and fusions are not shown.
UniProt P35414, whole entry: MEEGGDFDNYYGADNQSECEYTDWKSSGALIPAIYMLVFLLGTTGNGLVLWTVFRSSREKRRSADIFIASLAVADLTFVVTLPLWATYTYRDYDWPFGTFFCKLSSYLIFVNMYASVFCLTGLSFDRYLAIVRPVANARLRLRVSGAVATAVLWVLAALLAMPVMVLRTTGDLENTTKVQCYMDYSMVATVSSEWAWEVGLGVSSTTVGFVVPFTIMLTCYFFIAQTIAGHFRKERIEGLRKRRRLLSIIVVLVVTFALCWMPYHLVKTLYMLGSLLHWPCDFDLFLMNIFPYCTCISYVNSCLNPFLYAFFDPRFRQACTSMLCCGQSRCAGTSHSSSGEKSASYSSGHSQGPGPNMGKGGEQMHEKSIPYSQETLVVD

The structures given here were assigned with low confidence; some may be wrong.

For orientation: EC50 means the midpoint of the concentration-response curve.

Regarding `COc1cccc(-c2nnc(NS(=O)(=O)[C@@H](C)[C@H](OC)c3ncc(Cl)cn3)n2C(C)C2CCCCO2)n1` (single isomer, unassigned), the EC50 worked out at 0.24 nM.
